PubChem BioAssay AID1053209 – Peter MacCallum Cancer Centre, 2014
The deposit covers about 1,580 reagents; this is a random part of them. Over the whole deposit, 207 (13%) got an active call. 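Rows are single siRNAs; four siRNAs per gene were tested, a gene counting as confirmed only when at least two agree.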 Reagents against one gene are numbered here. Further read-outs or replicates are left out here.

Aim: 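Knock-downs that sensitise mouse osteosarcoma cells to doxorubicin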 (follow-up of hits)
Cells: mouse primary osteosarcoma cells
Reagents: single siRNA against mouse genes, 25 nM (text also states 40 nM)
Timing: about 120 h (48 h before drug, then 72 h with drug)
Conditions: doxorubicin 100 nM (about IC30-40), added 48 h after transfection, for 72 h
Read-out: 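ATP-based luminescent viability, with or without doxorubicin, relative to non-targeting control NT1, mean of two replicates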
Reading the numbers: viability with doxorubicin, vs NT1: higher = more viable cells under doxorubicin; viability without drug, vs NT1: higher = more viable cells without drug
Rule for the call: 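Active when doxorubicin viability is at most 0.7 of NT1 and drug-free viability lies between 0.7 and 1.1, class LC dox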

target gene	siRNA no.	combined effect class	viability with doxorubicin, vs NT1	viability without drug, vs NT1	Outcome
Arcn1 (archain 1)	1	low viability with and without drug	0.5	0.68	inactive
Arcn1 (archain 1)	2	low viability only with doxorubicin; normal without drug	0.24	0.78	active
Arcn1 (archain 1)	3	low viability with and without drug	0.06	0.3	inactive
Arcn1 (archain 1)	4	low viability with and without drug	0.18	0.46	inactive
Polr2j (polymerase (RNA) II (DNA directed) polypeptide J)	1	normal viability with and without drug	1.06	0.98	inactive
Polr2j (polymerase (RNA) II (DNA directed) polypeptide J)	2	normal viability with and without drug	0.97	0.98	inactive
Polr2j (polymerase (RNA) II (DNA directed) polypeptide J)	3	low viability only with doxorubicin; normal without drug	0.39	0.74	active
Polr2j (polymerase (RNA) II (DNA directed) polypeptide J)	4	low viability only with doxorubicin; normal without drug	0.62	0.9	active
Adar (adenosine deaminase, RNA-specific)	1	high viability only with doxorubicin	1.1	1.01	inactive
Adar (adenosine deaminase, RNA-specific)	2	normal viability with and without drug	0.73	0.9	inactive
Adar (adenosine deaminase, RNA-specific)	3	low viability only with doxorubicin; normal without drug	0.64	0.9	active
Adar (adenosine deaminase, RNA-specific)	4	normal viability with and without drug	0.85	1.04	inactive
Rassf3 (Ras association (RalGDS/AF-6) domain family member 3)	1	normal viability with and without drug	0.96	1.06	inactive
Rassf3 (Ras association (RalGDS/AF-6) domain family member 3)	2	normal viability with and without drug	1.01	0.97	inactive
Rassf3 (Ras association (RalGDS/AF-6) domain family member 3)	3	low viability only with doxorubicin; normal without drug	0.68	0.94	active
Rassf3 (Ras association (RalGDS/AF-6) domain family member 3)	4	normal viability with and without drug	1.06	0.92	inactive
Prpf6 (pre-mRNA splicing factor 6)	1	normal viability with and without drug	0.9	0.89	inactive
Prpf6 (pre-mRNA splicing factor 6)	2	low viability only with doxorubicin; normal without drug	0.6	0.72	active
Prpf6 (pre-mRNA splicing factor 6)	3	low viability only with doxorubicin; normal without drug	0.68	0.9	active
Prpf6 (pre-mRNA splicing factor 6)	4	normal viability with and without drug	0.82	0.97	inactive
Msgn1 (mesogenin 1)	1	low viability only with doxorubicin; normal without drug	0.7	0.74	active
Msgn1 (mesogenin 1)	2	normal viability with and without drug	0.94	0.94	inactive
Msgn1 (mesogenin 1)	3	normal viability with and without drug	0.8	0.87	inactive
Msgn1 (mesogenin 1)	4	normal viability with and without drug	0.9	0.88	inactive
Otp (orthopedia homeobox)	1	high viability only with doxorubicin	1.12	1	inactive
Otp (orthopedia homeobox)	2	low viability only with doxorubicin; normal without drug	0.62	0.87	active
Otp (orthopedia homeobox)	3	normal viability with and without drug	0.86	1.07	inactive
Otp (orthopedia homeobox)	4	normal viability with and without drug	0.97	0.99	inactive
Nup188 (nucleoporin 188)	1	low viability only with doxorubicin; normal without drug	0.56	0.89	active
Nup188 (nucleoporin 188)	2	normal viability with and without drug	0.99	1.01	inactive
Nup188 (nucleoporin 188)	3	normal viability with and without drug	0.72	0.82	inactive
Nup188 (nucleoporin 188)	4	low viability with and without drug	0.48	0.63	inactive
Ebna1bp2 (EBNA1 binding protein 2)	1	low viability with and without drug	0.54	0.52	inactive
Ebna1bp2 (EBNA1 binding protein 2)	2	low viability with and without drug	0.63	0.52	inactive
Ebna1bp2 (EBNA1 binding protein 2)	3	low viability only with doxorubicin; normal without drug	0.5	0.77	active
Ebna1bp2 (EBNA1 binding protein 2)	4	low viability only without drug	0.77	0.68	inactive
Puf60 (poly-U binding splicing factor 60)	1	low viability only with doxorubicin; normal without drug	0.61	0.84	active
Puf60 (poly-U binding splicing factor 60)	2	low viability with and without drug	0.44	0.67	inactive
Puf60 (poly-U binding splicing factor 60)	3	low viability only with doxorubicin; normal without drug	0.4	0.86	active
Puf60 (poly-U binding splicing factor 60)	4	normal viability with and without drug	0.83	0.9	inactive

Limited to “combined effect class”, for 3 of the entries above:
Nup188 (nucleoporin 188) #4: low viability with and without drug
Ebna1bp2 (EBNA1 binding protein 2) #1: low viability with and without drug
Ebna1bp2 (EBNA1 binding protein 2) #2: low viability with and without drug
